Results from patent US20090215992A1 (published 2009).
These are yes or no findings as the source states them, for the method shown. Some binding calls cover weakened binding; strength is not graded here.

The chains behind the UniProt entries cited, without tags or fusion partners. Residues count along the entry.
UniProt P01583, residues 113-271: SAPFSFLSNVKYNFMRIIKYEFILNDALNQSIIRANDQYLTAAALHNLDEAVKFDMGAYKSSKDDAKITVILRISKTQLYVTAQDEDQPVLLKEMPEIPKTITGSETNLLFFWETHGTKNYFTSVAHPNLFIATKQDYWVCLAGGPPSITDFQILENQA

What was measured:
[1] = molecular target: recombinant human IL-1α (human) (UniProt P01583); assay: SPR (Biacore)
[2] = molecular target: recombinant human IL-1α (human) (UniProt P01583); assay: SPR (Biacore) and MRC-5 bioassay

B1: chimeric 3D12.E3 antibody (3D12.E3-VH-hCγ1 / 3D12.E3-VL-hCk) (antibody, human IgG1, kappa, V domains shown)
VH: QIQLVQSGPELKKPGETVKISCKASGYTFRNYGMNWVKQAPGKDLKRMAWINTYTGESTYADDFKGRFAFSLETSASTAYLQINNLKNEDTATYFCARGIYYYGSSYAMDYWGQGTSVTVSS
VL: NIQMTQTTSSLSASLGDRVTISCRASQDISNCLNWYQQKPDGTVKLLIYYTSRLHSGVPSRFSGSGSGTDYSLTISNLEQEDIATYFCQQGKTLPYAFGGGTKLEINR
binding [1]: binds | binding [2]: binds
